# Data published in patent publication EP4574149A1, “COMPOSITION OF RAPAMYCIN, DIMETHYLSULPHOXIDE AND WATER FOR USE IN THE TREATMENT OF FATTY LIVER DISEASE” (Assistance Publique - Hôpitaux de Paris, priority 2023, dated 2025).
# At least one compound was matched to its structure with a doubt left.
# What was measured:
# Format in all cases: physicochemical
# [1] = Filtration on PTFE 0,22 µm filter: rapamycin content before/after (chromatogram areas); conditions: after one week at 4°C
# [2] = Sterilising filtration on nylon 0,2 µm Nalgene filter: rapamycin content; conditions: nylon 0,2 µm Nalgene sterilising filter
# [3] = Precipitation risk: 1:100 dilution in phosphate buffered saline at 37°C (worst case)
smiles,measurement,setting,value
"CO[C@H]1C[C@@H]2CC[C@@H](C)[C@@](O)(O2)C(=O)C(=O)N2CCCC[C@H]2C(=O)O[C@H]([C@H](C)C[C@@H]2CC[C@@H](O)[C@H](OC)C2)CC(=O)[C@H](C)/C=C(\C)[C@@H](O)[C@@H](OC)C(=O)[C@H](C)C[C@H](C)/C=C/C=C/C=C/1C [Rapamycine, rapamycine]",Ratio des aires de rapamycine avant/après filtration (%),"[1]; DMSO 70 % volumique, [rapamycine] 0,4 mg/mL",99%
same,Ratio des aires de rapamycine avant/après filtration (%),"[1]; DMSO 70 % volumique, [rapamycine] 1 mg/mL",100%
same,Ratio des aires de rapamycine avant/après filtration (%),"[1]; DMSO 70 % volumique, [rapamycine] 4 mg/mL",99%
same,Ratio des aires de rapamycine avant/après filtration (%),"[1]; DMSO 85 % volumique, [rapamycine] 0,4 mg/mL",100%
same,Ratio des aires de rapamycine avant/après filtration (%),"[1]; DMSO 85 % volumique, [rapamycine] 1 mg/mL",101%
same,Ratio des aires de rapamycine avant/après filtration (%),"[1]; DMSO 85 % volumique, [rapamycine] 4 mg/mL",100%
same,Ratio des aires de rapamycine avant/après filtration (%),"[1]; DMSO 100 % volumique, [rapamycine] 0,4 mg/mL",99%
same,Ratio des aires de rapamycine avant/après filtration (%),"[1]; DMSO 100 % volumique, [rapamycine] 1 mg/mL",99%
same,Ratio des aires de rapamycine avant/après filtration (%),"[1]; DMSO 100 % volumique, [rapamycine] 4 mg/mL",102%
same,teneurs en rapamycine après filtration,[2],conformes aux spécifications
same,Aspect visuel à température ambiante,"[3]; DMSO/H2O 70 % volumique, 0,4 mg/mL before dilution, 4 µg/mL after 1:100 dilution in PBS 37°C",Non trouble
same,Aspect visuel à température ambiante,"[3]; DMSO/H2O 70 % volumique, 1 mg/mL before dilution, 10 µg/mL after 1:100 dilution in PBS 37°C",Non trouble
same,Aspect visuel à température ambiante,"[3]; DMSO/H2O 70 % volumique, 4 mg/mL before dilution, 40 µg/mL after 1:100 dilution in PBS 37°C",Trouble
same,Aspect visuel à température ambiante,"[3]; DMSO/H2O 85 % volumique, 0,4 mg/mL before dilution, 4 µg/mL after 1:100 dilution in PBS 37°C",Non trouble
same,Aspect visuel à température ambiante,"[3]; DMSO/H2O 85 % volumique, 1 mg/mL before dilution, 10 µg/mL after 1:100 dilution in PBS 37°C",Non trouble
same,Aspect visuel à température ambiante,"[3]; DMSO/H2O 85 % volumique, 4 mg/mL before dilution, 40 µg/mL after 1:100 dilution in PBS 37°C",Trouble
same,Aspect visuel à température ambiante,"[3]; DMSO/H2O 100 % volumique, 0,4 mg/mL before dilution, 4 µg/mL after 1:100 dilution in PBS 37°C",Non trouble
same,Aspect visuel à température ambiante,"[3]; DMSO/H2O 100 % volumique, 1 mg/mL before dilution, 10 µg/mL after 1:100 dilution in PBS 37°C",Non trouble**
same,Aspect visuel à température ambiante,"[3]; DMSO/H2O 100 % volumique, 4 mg/mL before dilution, 40 µg/mL after 1:100 dilution in PBS 37°C",Trouble*
